Assay results reported in article PMC4583457.
No constants are given. Whether binding was seen depends on the method and setting. In cells and extracts the contact can be indirect. A result given as binding can be weak or reduced; the word gives no strength.

Tests used:
[1] = target: T1, myelin protein zero (P0), endogenous in adult mouse sciatic nerve (mouse (endogenous in sciatic nerve)) (UniProt P27573); experiment: co-IP; as a2, but from sciatic nerve lysates of HDAC1/2 dKO mice at 8 wk post-tamoxifen (P0 levels reduced)
T1 sequence: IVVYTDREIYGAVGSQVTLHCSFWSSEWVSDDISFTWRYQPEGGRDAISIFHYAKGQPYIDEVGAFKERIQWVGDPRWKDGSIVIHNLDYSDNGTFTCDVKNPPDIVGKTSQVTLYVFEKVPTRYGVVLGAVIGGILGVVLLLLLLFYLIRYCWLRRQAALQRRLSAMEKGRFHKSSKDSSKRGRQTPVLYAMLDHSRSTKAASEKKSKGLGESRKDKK

[2] = target: T1, myelin protein zero (P0), endogenous in adult mouse sciatic nerve (mouse (endogenous in sciatic nerve)); experiment: co-IP; IP with 2 ug chicken anti-P0 antibody on PrecipHen beads from adult control littermate mouse sciatic nerve lysates (8 wk post-tamoxifen); blot with pan-NFasc antibody; chicken IgY as negative control

binding [1]: binds weakly
binding [2]: binds
Substance: NFasc155, endogenous in adult mouse sciatic nerve
